Reference: publication PMC4505066, “Insights into the Recruitment of Class IIa Histone Deacetylases (HDACs) to the SMRT/NCoR Transcriptional Repression Complex” (The Journal of Biological Chemistry, 2015)
These are yes or no findings as the source states them, for the method shown. Binding calls can cover weak binding; strength is not graded here.

Target: T1, wild type GSI motif peptide (…), SMRT amino acids 1450-1469 with an amino-terminal cysteine
T1 sequence (peptide, BODIPY-TMR coupled to the N-terminal cysteine): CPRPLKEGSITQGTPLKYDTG
Experiment: fluorescence polarisation; fluorescence anisotropy; BODIPY-TMR-labelled peptide at 1 uM, HDAC in 2-fold serial dilution; 1x PBS, 0.01% Triton X-100, 0.1 mg/ml BSA; one-site binding fit; in Fig. 4A HDAC4 also preincubated 30 min with inhibitor at 2:1 (suberoylanilide hydroxamic acid, trichostatin A, valproic acid, sodium butyrate); both purified

- binding: binds
Substance: HDAC9 catalytic domain (domain or fragment)
